Data as given in PubChem BioAssay AID493246 (Drosophila RNAi Screening Center, 2011)

- Assay: 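Identify essential fly genes by loss of cell viability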 (primary screen)
- Cells: Drosophila Kc and S2R+ cells
- Reagent: long dsRNA against Drosophila genes
- Measurement: 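Raw, unnormalised count of remaining cells in each well; per-plate z-scores of cell number underlie the calls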
- Scale: Kc cell number and S2R+ cell number: higher = more cells remaining
- Call rule: 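Active when the per-plate z-score of cell number is 3 or more in the direction of fewer cells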
In all, the deposit lists about 21,000 reagents; below is a random part of those with a known target gene and a result. Of all reagents, 429 (2%) got an active call. 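Values are raw and not normalised between plates; calls rest on per-plate z-scores that were not deposited.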 Unmarked entries are inactive. Reagent sequences are not shown. Not stated in the record: the amount of reagent, the time to read-out.

gene | DRSC id | Kc cell number, rep 1 | Kc cell number, rep 2 | S2R+ cell number, rep 1 | S2R+ cell number, rep 2
Ho | DRSC14939 | 1.56e6 | 1.60e6 | 1.29e6 | 1.27e6
CG9171 | DRSC03152 | 1.35e6 | 1.46e6 | 5.35e5 | 8.15e5
CG6724 | DRSC02983 | 1.51e6 | 1.59e6 | 1.07e6 | 1.23e6
CG11145 | DRSC06049 | 1.74e6 | 1.92e6 | 1.30e6 | 1.49e6
Srg1 | DRSC14640 | 1.75e6 | 1.72e6 | 1.01e6 | 1.15e6
CG6972 | DRSC16159 | 1.57e6 | 1.66e6 | 9.85e5 | 1.10e6
tral | DRSC09779 | 1.09e6 | 1.15e6 | 7.77e5 | 7.55e5
O-fut1 | DRSC06138 | 1.40e6 | 1.45e6 | 1.16e6 | 1.21e6
tut | DRSC08909 | 1.44e6 | 1.50e6 | 1.17e6 | 1.33e6
jb | DRSC20531 | 1.42e6 | 1.48e6 | 9.84e5 | 1.09e6
CG14074 | DRSC10079 | 1.66e6 | 1.75e6 | 1.32e6 | 1.41e6
dnt | DRSC03522 | 1.31e6 | 1.35e6 | 1.24e6 | 1.24e6
Hs2st | DRSC03348 | 1.42e6 | 1.49e6 | 1.30e6 | 1.33e6
mus101 | DRSC19388 | 1.79e6 | 1.54e6 | 1.14e6 | 1.24e6
CG6686 | DRSC02979 | 1.30e6 | 1.38e6 | 1.02e6 | 1.09e6
CG6059 | DRSC15958 | 5.02e5 | – | 7.55e5 | –
CG31551 | DRSC12159 | 1.32e6 | 1.34e6 | 1.10e6 | 1.22e6
CG14971 | DRSC08430 | 1.36e6 | 1.51e6 | 1.12e6 | 1.12e6
tyn | DRSC20652 | 1.45e6 | 1.47e6 | 9.82e5 | 1.13e6
CG32755 | DRSC18397 | 1.48e6 | 1.45e6 | 1.05e6 | 1.17e6

Continued; the last 5 above are carried over.
gene | DRSC id | Kc cell number, rep 1 | Kc cell number, rep 2 | S2R+ cell number, rep 1 | S2R+ cell number, rep 2
CG6059 | DRSC15958 | 5.02e5 | – | 7.55e5 | –
CG31551 | DRSC12159 | 1.32e6 | 1.34e6 | 1.10e6 | 1.22e6
CG14971 | DRSC08430 | 1.36e6 | 1.51e6 | 1.12e6 | 1.12e6
tyn | DRSC20652 | 1.45e6 | 1.47e6 | 9.82e5 | 1.13e6
CG32755 | DRSC18397 | 1.48e6 | 1.45e6 | 1.05e6 | 1.17e6
CG30275 | DRSC04163 | 1.59e6 | 1.70e6 | 1.36e6 | 1.45e6
CG34228 | DRSC05300 | 1.45e6 | 1.53e6 | 1.08e6 | 1.24e6
IFT54 | DRSC15469 | 1.46e6 | 1.45e6 | 1.03e6 | 1.18e6
Marf1 | DRSC03747 | 1.55e6 | 1.65e6 | 1.24e6 | 2.92e5
Marf1 | DRSC03774 | 5.14e5 | – | 8.68e5 | –
mim | DRSC05013 | 8.75e5 (active) | 1.20e6 | 5.65e5 | 6.18e5
gcl | DRSC07623 | 1.55e6 | 1.56e6 | 1.14e6 | 1.16e6
CG5815 | DRSC14135 | 1.63e6 | 1.67e6 | 1.03e6 | 1.11e6
CG13526 | DRSC04168 | 1.66e6 | 1.72e6 | 1.23e6 | 1.48e6
Cyt-c1L | DRSC14860 | 1.55e6 | 1.56e6 | 9.88e5 | 1.09e6
Arc1 | DRSC06159 | 1.41e6 | 1.46e6 | 1.05e6 | 1.14e6
CG15098 | DRSC06527 | 1.71e6 | 1.72e6 | 1.12e6 | 1.27e6
CG15293 | DRSC01919 | 1.71e6 | 1.91e6 | 1.19e6 | 1.36e6
synr | DRSC02369 | 1.81e6 | 1.91e6 | 1.32e6 | 1.51e6
cos | DRSC07598 | 1.39e6 | 1.47e6 | 9.84e5 | 1.10e6
CG10035 | DRSC14177 | 1.47e6 | 1.51e6 | 1.20e6 | 1.31e6
CG14391 | DRSC14850 | 1.49e6 | 1.59e6 | 1.37e6 | 1.50e6
Pi3K59F | DRSC04640 | 1.36e6 | 1.39e6 | 1.17e6 | 1.17e6
Vsx1 | DRSC18349 | 9.02e5 (active) | 9.13e5 | 3.80e5 | 4.94e5
Vsx1 | DRSC18350 | 1.49e6 | 1.50e6 | 7.72e5 | 8.90e5
